Laboratory results published in patent US10668156B2, “Active-ingredient-containing solid dispersions based on diethylaminoethyl methacrylate copolymers” (BASF SE, priority 2012, dated 2020).

Experiment: Film method: loading capacity of active ingredient in polymer films, microscopic assessment after storage
Format: physicochemical
Details: no crystals in film, storage 7 days 23° C./54% relative humidity
Excerpt: The film method is a process in which a clear solution of the polymer and of the active ingredient is molded to give a thin film which solidifies as a result of the solvent evaporating. Clear solution means that no clouding is evident upon normal inspection. This method is suitable in particular as a screening method in order to determine the loading limits of the solid dispersions in a simple manner. For the screening process, the film can be produced by pouring the solution with the corresponding concentrations of polymer and active ingredient onto glass plates and drawing it out with the help of a blade to give the film. Usually, the films are drawn to layer thicknesses of from 50 to 200 μm. The resulting films are then dried by drawing off the solvent, and solidified as a result. In one or more embodiments, the solvent is removed in vacuo, for example at 1 hPa to 100 hPa. […] Additionally, the removal of the solvent can be effected by the action of temperature.
For the screening process, the films produced are then stored under controlled climatic conditions for defined periods of time—generally 14 days.
The films can then be evaluated by microscope at 40 times magnification. Clear films are a sign of amorphous systems. Cloudy films point to relatively large crystalline fractions.
To prepare the polymer/active ingredient mixture, the substances were weighed in the respective amounts into a 50 ml penicillin bottle.
All of the mixtures were stirred for 24 h on a magnetic stirrer until the constituents had dissolved. After visually assessing the solution (clear solution), the solvent was drawn out on a glass plate using a 120 μm blade. The resulting film was dried for 0.5 h at room temperature of 22+/−2° C. in a fume cupboard and then for 0.5 h in a vacuum drying cabinet at 50° C. and […]. […] Clear films (without active ingredient crystals) indicate molecularly disperse solutions and cloudy films (with active ingredient crystals) indicate crystalline systems.

[1] = molecularly disperse dissolved active ingredient

SMILES: C(=C\c1ccccc1)/CN1CCN(C(c2ccccc2)c2ccccc2)CC1 [Cinnarizine]
- Loading capacity, active ingredients in %, Films with Kollicoat ® Smartseal + 6 mol partially neutralized (6 mol % of basic groups neutralized with adipic acid): 20%
- Loading capacity, active ingredients in %, Films with Kollicoat ® Smartseal + 8 mol partially neutralized (8 mol % of basic groups neutralized with succinic acid): 20%
- Loading capacity, active ingredients in %, Films with Eudragit ® EPO [1]: <10%
- Loading capacity, active ingredients in %, Films with Kollicoat ® Smartseal freeze-dried [1]: 20%
